According to PMC4222909, “The Porphyromonas gingivalis Ferric Uptake Regulator Orthologue Binds Hemin and Regulates Hemin-Responsive Biofilm Development” (PLoS ONE, 2014):
These are yes or no findings as the source states them, for the method shown. Some entries that bind do so weakly or less than the wild type.

Target: Zn(II)Har, recombinant Porphyromonas gingivalis Har (heme associated regulator, Fur orthologue PGN_1503) (Porphyromonas gingivalis ATCC 33277) (UniProt B2RKX7)
Experiment: SEC; both purified

B1: Zn(II)Har, recombinant Porphyromonas gingivalis Har (heme associated regulator, Fur orthologue PGN_1503) (natural protein, Porphyromonas gingivalis ATCC 33277, UniProt B2RKX7 1-166, looked up)
chain: MIVTSLEDLRSRLRAYVSENGLRHTPERYSILEVAYNLKKIFTPDDLFDLTRENGLPVSLSTVYNTLTLLERCGIVLRLPSPETKYQYLMASFAEQCPLLFCTECAQFSTYYRRNVKSILADKDLRPPRFSYRQALICLYGICDKCRKKQSALKKAADKAAPKKKK
notes: Har (Fur family transcriptional regulator), P. gingivalis ATCC 33277, gene PGN_1503 (501 bp), full length; Factor Xa site (IEGR) immediately before the start of har; Measured mass of apo-Har 19157.46 Da fits the theoretical 19157.20 Da; also called PgHar; rHar; source: E. coli BL21(DE3), purified (GSTrap, on-column Factor Xa cleavage, cation exchange, size exclusion); not shown: GST, N-terminal, …
With B1 the binding was “binds”.
